These are yes or no findings as the source states them, for the method shown. Binding can be weak; no strength is given. Tags and fused reporters may be left off the sequences shown.

This assay addresses BD-11TPR (11-TPR domain of SPY in pGBKT7) (Arabidopsis thaliana). Briefly: two-hybrid; one-to-one test: pGBKT7 baits with pGADT7-CPN20; growth on SD/-Trp/-Leu/-His/AbA/X-alpha-Gal or SD/-Trp/-Leu/-His/-Ade/AbA/X-alpha-Gal; pictures after 4 days on SD-3/X/A.

B1: AD-CPN20 (full-length CPN20 in pGADT7) (protein, UniProt O65282 1-253)
chain: MAATQLTASPVTMSARSLASLDGLRASSVKFSSLKPGTLRQSQFRRLVVKAASVVAPKYTSIKPLGDRVLVKIKEAEEKTLGGILLPSTAQSKPQGGEVVAVGEGRTIGKNKIDITVPTGAQIIYSKYAGTEVEFNDVKHLILKEDDIVGILETEDIKDLKPLNDRVFIKVAEAEEKTAGGLLLTETTKEKPSIGTVIAVGPGSLDEEGKITPLPVSTGSTVLYSKYAGNDFKGKDGSNYIALRASDVMAILS
On to B1, for which the binding entry was “binds”.

(Values after article PMC8545988.)
